Paper PMC7819943, “Rice protein-binding microarrays: a tool to detect cis-acting elements near promoter regions in rice”
This is one part of the list.

By UniProt entry, the sequences of proteins in these tests, tags left out.
UniProt Q0JBA9, entry or part of it: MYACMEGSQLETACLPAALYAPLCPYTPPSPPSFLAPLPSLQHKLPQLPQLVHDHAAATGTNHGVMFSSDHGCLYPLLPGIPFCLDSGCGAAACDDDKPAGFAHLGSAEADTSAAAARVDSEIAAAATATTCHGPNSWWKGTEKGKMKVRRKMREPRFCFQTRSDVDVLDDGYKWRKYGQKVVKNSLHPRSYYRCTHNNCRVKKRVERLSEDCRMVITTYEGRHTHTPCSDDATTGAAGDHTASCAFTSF

Each sequence was assayed against OsWRKY34 (Oryza sativa, UniProt Q0JBA9 1-250) (assay: protein-binding microarray (RPBM); PBS, 2% BSA, 51.3 ng/ul salmon testes DNA, 50 uM zinc acetate, 200 nM TF, 25 C, 1 h; high values mean tight binding). Conditions: protein: recombinant; tags: N-terminal polyhistidine and DsRed monomer fusion (pET32a); label: CyDye5-dUTP incorporated in the synthesized complementary strand; 3' TTTTT single-stranded linker to array surface; dsDNA, one strand shown.
Outline: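 The binding signal for each feature is its fluorescence intensity in arbitrary units. An Axon 4000B scanner was used to read a custom Agilent array that had been made double-stranded with Cy5-dUTP primer extension, blocked with 2% BSA, incubated at 25 °C for 1 h with 200 nM protein in PBS, 2% BSA, salmon testes DNA and 50 µM zinc acetate, and washed. The protein was an N-terminal polyhistidine–DsRed transcription factor fusion from E. coli BL21-CodonPlus, purified on Ni–NTA.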
“TTCCGACTGGTCATCTCATCGATCATCCGCGATTCTTTTTCGGAGTCACCTAGTGCAG” was tested, and the binding signal was 12200 fluorescence intensity (a.u.).
With “GCACCGAGATCTTCTGTGCCTACTTCGCATCATACCTCGCCGGAGTCACCTAGTGCAG” the binding signal was 8820 fluorescence intensity (a.u.).
In the case of “AGTGGTTTGAATATTCGTTTTGTTTTGTTACTTTTTTTGACGGAGTCACCTAGTGCAG”, the binding signal was 15200 fluorescence intensity (a.u.).
With “GGTAGCAGGTGGGCTGATGTCGTAGGTTCACGTGGGCGCGCGGAGTCACCTAGTGCAG” the binding signal was 8920 fluorescence intensity (a.u.).
In the case of “CTTGTCATTAGTAAATGTTTACGGTAGCACCACATTTTTTCGGAGTCACCTAGTGCAG”, the binding signal was 8040 fluorescence intensity (a.u.).
“AATTAAATATAGACTGGTATCTCCTTTTAGGTTAGCTTTTCGGAGTCACCTAGTGCAG” was tested, and the binding signal was 8170 fluorescence intensity (a.u.).
With “GCACTTAGATTCTCCTCAAGCTCTTTTTACCGTACCTGTTCGGAGTCACCTAGTGCAG” the binding signal was 8180 fluorescence intensity (a.u.).
“CCTGTCTACCTATGGAATAGCCCCATGATTCATGAACAACCGGAGTCACCTAGTGCAG” was tested, and the binding signal was 9740 fluorescence intensity (a.u.).
With “TCTATCTTCTCCATCTTCCACCACTTGTATCCCCTTAGTTCGGAGTCACCTAGTGCAG” the binding signal was 9300 fluorescence intensity (a.u.).
For “CGGTCTTTTTGTTTGGTTATTCGGTTAGGTCTTATATTGCCGGAGTCACCTAGTGCAG”, the binding signal was 8910 fluorescence intensity (a.u.).
“CGTCTGTTTATCCTTTATCTATTTATTCTTCCCCTGGTGTCGGAGTCACCTAGTGCAG” was tested, and the binding signal was 8140 fluorescence intensity (a.u.).
“GGATTGTCCTTGTTCTGTTGCGAAAACCCAGCTAAAATAGCGGAGTCACCTAGTGCAG” was tested, and the binding signal was 9370 fluorescence intensity (a.u.).
“CAGTGTGTTATCTTTGATCAGTCACCAGGTTGCATTTCTTCGGAGTCACCTAGTGCAG” was tested, and the binding signal was 8880 fluorescence intensity (a.u.).
With “AGTTTTCTTTGTTCACCTACCGTTTTTTTAGCACGTAGTTCGGAGTCACCTAGTGCAG” the binding signal was 10500 fluorescence intensity (a.u.).
In the case of “GTGCCCATTTTGTCAACGCGCAGTCTCCCTGACTTTCTCTCGGAGTCACCTAGTGCAG”, the binding signal was 9160 fluorescence intensity (a.u.).
For “TAAAATTGACTCTTATGGTATAGAAATTCTCATATTTACGCGGAGTCACCTAGTGCAG”, the binding signal was 8080 fluorescence intensity (a.u.).
With “TCAATTTTCAACGATGTTTTATTTCAGCTTTGTTTTTGACCGGAGTCACCTAGTGCAG” the binding signal was 12700 fluorescence intensity (a.u.).
With “GCCATAGGACCTTTAGTGTATGGTTTTGTATAGTTTAGGGCGGAGTCACCTAGTGCAG” the binding signal was 8080 fluorescence intensity (a.u.).
For “GCACACACATCGATCGCTAATCCATCAACCTATAGCTTAACGGAGTCACCTAGTGCAG”, the binding signal was 10900 fluorescence intensity (a.u.).
“TCATCGCCGATCGATTGACCATTTGACCTCCAAGATTGTTCGGAGTCACCTAGTGCAG” was tested, and the binding signal was 8140 fluorescence intensity (a.u.).
In the case of “TACCTTAAAATTCTCTAGTGGTGGTGGTGGTGAAAGGGTTCGGAGTCACCTAGTGCAG”, the binding signal was 8450 fluorescence intensity (a.u.).
For “GGAGGTAGTTTATATTTTGTGACGGAGGTAGTATAACGGACGGAGTCACCTAGTGCAG”, the binding signal was 9180 fluorescence intensity (a.u.).
With “ACACTTTCTCTCTTGTACACTTTCATTTCACGTGTCTAAACGGAGTCACCTAGTGCAG” the binding signal was 17500 fluorescence intensity (a.u.).
For “AAAACATATACCTTCGTTTCTCTTTTCTTTTCCAGTTCCTCGGAGTCACCTAGTGCAG”, the binding signal was 9130 fluorescence intensity (a.u.).
With “ACCGTATACATAGTTTTCACCGTATATTTTCCCATTTCTCCGGAGTCACCTAGTGCAG” the binding signal was 9600 fluorescence intensity (a.u.).
In the case of “GGCTTATCCGTTCAGTTGCCAGCCACTCAAGTTATTGCAACGGAGTCACCTAGTGCAG”, the binding signal was 8580 fluorescence intensity (a.u.).
With “CACTCCCAGATATTTGCGCTCTCCTCTTCTTCTTATACCCCGGAGTCACCTAGTGCAG” the binding signal was 10800 fluorescence intensity (a.u.).
With “TCTGAACCTTCTTTACTTGTCCTCAAATGGCCACCTCTTCCGGAGTCACCTAGTGCAG” the binding signal was 8260 fluorescence intensity (a.u.).
“GTACATTACTCTTCTAATTAGCAACAGGCATGCAAATAATCGGAGTCACCTAGTGCAG” was tested, and the binding signal was 8860 fluorescence intensity (a.u.).
For “TAGCTTCGTCCACCCAATTTGACTTTCCAATCCATTGTGACGGAGTCACCTAGTGCAG”, the binding signal was 11100 fluorescence intensity (a.u.).
In the case of “GTTATGTGCCAATGGAGCTTTGTGTAGTTTGTGAGGGCCACGGAGTCACCTAGTGCAG”, the binding signal was 9830 fluorescence intensity (a.u.).
With “GTGGATCGTGGTCTCCGTCTCGTCCCCGCCCACCGCCGCGCGGAGTCACCTAGTGCAG” the binding signal was 8320 fluorescence intensity (a.u.).
With “TCGCCGCGATTCCTCTTCCGCCCGCCGCTGGTCGTCGCCGCGGAGTCACCTAGTGCAG” the binding signal was 10100 fluorescence intensity (a.u.).
With “GGTTGTTGAGCTAGCATTATACGTACATTTAAGTTTGGCACGGAGTCACCTAGTGCAG” the binding signal was 11100 fluorescence intensity (a.u.).
In the case of “TCTTATCTGATGACTACATACCCATTGGTTATCACATTTCCGGAGTCACCTAGTGCAG”, the binding signal was 9210 fluorescence intensity (a.u.).
For “TTCTCTTTATTTCTCCACATATAAGTCAAATTTGACCGATCGGAGTCACCTAGTGCAG”, the binding signal was 8520 fluorescence intensity (a.u.).
For “GACGGGCGGCGGTGGGGCTGACGCGGGCGACGGAGGGGCTCGGAGTCACCTAGTGCAG”, the binding signal was 11500 fluorescence intensity (a.u.).
In the case of “AGGAGAGAAAGGAAGGTGGTGTGGGTGGTTGGTGGTGGTGCGGAGTCACCTAGTGCAG”, the binding signal was 10300 fluorescence intensity (a.u.).
With “GTTTAGACATGGTTCACCAGCTGCTTTTTATTATACTTTACGGAGTCACCTAGTGCAG” the binding signal was 8850 fluorescence intensity (a.u.).
In the case of “ATGTAAGATCGACGTATCAGTCAGTGCTACTGCACCAGCGCGGAGTCACCTAGTGCAG”, the binding signal was 8080 fluorescence intensity (a.u.).
In the case of “TTTTTAGCCCGCTGCTCTTCTCTCTCCTCATTTATCTTCTCGGAGTCACCTAGTGCAG”, the binding signal was 10600 fluorescence intensity (a.u.).
“TATCTTAGGGCATGTTTGGTTGTACGGATCGTACCTGACTCGGAGTCACCTAGTGCAG” was tested, and the binding signal was 9620 fluorescence intensity (a.u.).
With “CAGGAGGCAGGGGTGATCTTTCAGCGGTTAAATCGGGTGACGGAGTCACCTAGTGCAG” the binding signal was 8590 fluorescence intensity (a.u.).
With “TTCCTCGCCGCTTTTTTCTTTGCTTCTTGCGGTGGCCATGCGGAGTCACCTAGTGCAG” the binding signal was 8440 fluorescence intensity (a.u.).
For “TATACATGGGCTTAATTCTCACCAACAGCGACGGGTGGGCCGGAGTCACCTAGTGCAG”, the binding signal was 8230 fluorescence intensity (a.u.).
“ATTGGAGTTGGTATGGGCGTGTCTGTGGTTTTGAAACATTCGGAGTCACCTAGTGCAG” was tested, and the binding signal was 8650 fluorescence intensity (a.u.).
With “GGTACTTTTCCGGCGGCGGCGGCGGCGGCGGTGGCGGTGGCGGAGTCACCTAGTGCAG” the binding signal was 13500 fluorescence intensity (a.u.).
With “TCTAGCCCTAACGAATCACAAAAATCATGTCTGTTTTTTTCGGAGTCACCTAGTGCAG” the binding signal was 8980 fluorescence intensity (a.u.).
With “TCTCTCAGTCTCTCACTGACAAATACGTCTCACTAACTGACGGAGTCACCTAGTGCAG” the binding signal was 8110 fluorescence intensity (a.u.).
For “CCTTCCAAAACGCGCCCGATCCAACTCTTGTCCTCGCGCGCGGAGTCACCTAGTGCAG”, the binding signal was 8280 fluorescence intensity (a.u.).
With “AATGTTTCTTTGATTTTTGTTGCTATGTAGGAGTAGTATACGGAGTCACCTAGTGCAG” the binding signal was 8220 fluorescence intensity (a.u.).
With “TATGTGTTTTCTCGTGGCCTAATCAAACGACCATTCCTATCGGAGTCACCTAGTGCAG” the binding signal was 8410 fluorescence intensity (a.u.).
For “CACCGTACGTTGATCCGCTAGACTCTGCTCCAGTTGACCACGGAGTCACCTAGTGCAG”, the binding signal was 8540 fluorescence intensity (a.u.).
“AACCACACTCTGTTTCTAACATTTTTTCTTGTTACATGACCGGAGTCACCTAGTGCAG” was tested, and the binding signal was 13100 fluorescence intensity (a.u.).
